Results as given in PubChem BioAssay AID588590 (National Center for Advancing Translational Sciences (NCATS), 2011).
Several values for one entry are separate records, joined by “and”; a condition that tells them apart may be missing. Equal entries are not always repeated. Out of some 390,000 compounds screened, about 4,000 (1%) were called active. Inconclusive results, whose numbers are uncertain, are shown with a selection of clear calls. Calls come from the whole dose curve; as a rule, active = well fitted inhibition curve with a large enough effect; inconclusive = small, poorly fitted or top-dose-only effect, or another doubt; inactive = no such curve, though single readings can be large or run the other way. Where the call is inconclusive, the potency comes from a doubtful curve fit.
Potency is the fitted concentration of half-maximal effect.

Chains of the proteins cited; added tags and fusions are not shown. Lines headed by an entry give the natural chain unless they say otherwise; changes in a name come on top.
UniProt Q9UNA4: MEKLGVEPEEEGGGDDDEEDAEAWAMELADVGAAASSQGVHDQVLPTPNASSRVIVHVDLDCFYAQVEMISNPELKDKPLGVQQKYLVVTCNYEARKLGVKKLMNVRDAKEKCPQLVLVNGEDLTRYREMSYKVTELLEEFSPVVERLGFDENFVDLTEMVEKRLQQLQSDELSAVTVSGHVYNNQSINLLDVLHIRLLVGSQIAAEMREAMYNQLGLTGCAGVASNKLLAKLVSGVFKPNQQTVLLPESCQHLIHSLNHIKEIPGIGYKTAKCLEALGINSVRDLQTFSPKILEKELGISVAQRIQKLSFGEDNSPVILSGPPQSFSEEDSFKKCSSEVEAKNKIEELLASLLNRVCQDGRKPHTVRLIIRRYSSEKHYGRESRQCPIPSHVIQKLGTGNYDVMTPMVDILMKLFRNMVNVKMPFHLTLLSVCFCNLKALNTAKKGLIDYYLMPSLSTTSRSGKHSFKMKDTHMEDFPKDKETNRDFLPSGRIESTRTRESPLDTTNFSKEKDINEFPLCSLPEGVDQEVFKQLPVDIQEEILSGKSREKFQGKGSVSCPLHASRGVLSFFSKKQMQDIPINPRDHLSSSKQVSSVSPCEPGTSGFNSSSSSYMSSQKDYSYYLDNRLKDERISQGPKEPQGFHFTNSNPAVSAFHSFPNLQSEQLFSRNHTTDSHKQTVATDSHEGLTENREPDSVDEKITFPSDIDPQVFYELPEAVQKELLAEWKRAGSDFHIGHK

These molecules were tested against DNA polymerase iota (Homo sapiens) (UniProt Q9UNA4) (assay: qHTS for Inhibitors of Polymerase Iota). Settings: Pol iota fluorescent replication assay, 10 min; series mostly up to 115 µM.
Procedure, shortened: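 Pol iota at 10 nM preincubated 15 min with compounds at room temperature; reaction started with fluorescent substrate, 50 nM final. Fluorescence read kinetically at 0 and 10 min; buffer-only wells as negative control.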
For `COc1cc2cc(CNc3ccccc3)c(=O)n(CC(=O)Nc3cccc(Cl)c3C)c2cc1OC`, the Potency was “inactive”.
In the case of `CCCCNC(=O)C1CCCN(S(=O)(=O)CCC)C1` (stereo unspecified), the Potency is reported as “inactive”.
For `COc1ccc(-n2ncc3c(NCCCOC(C)C)ncnc32)cc1`, the Potency was “inactive”.
With `C=CCSc1nc2ccccc2n1C(=O)/C=C/c1cc(OC)c(OC)c(OC)c1` the Potency was inconclusive: 14.1 µM [inhibitor, partial curve, poor fit].
In the case of `Cc1ccc(NC2=NCC(=O)N2Cc2ccc3c(c2)OCO3)c(C)c1`, the Potency is reported as inconclusive: 39.8 µM [inhibitor, single point].
With `CCN1CCN(c2ccc(S(=O)(=O)N3CCOCC3)cc2NC(=O)CC(NC(C)=O)c2ccccc2)CC1` (stereo unspecified) the Potency was inconclusive: 39.8 µM [inhibitor, partial curve, poor fit].
In the case of `CC1(C)OC(=O)N(c2ccccc2)C12C=Cc1c(ccc3ccccc13)O2` (stereo unspecified), the Potency is reported as inconclusive: 11.2 µM [inhibitor, partial curve, poor fit].
In the case of `O=C(NCC1CCCN(Cc2cccc(C(F)(F)F)c2)C1)c1ccc(F)cc1` (stereo unspecified), the Potency is reported as inconclusive: 79.4 µM [inhibitor, single point].
`Cn1cccc1C(=O)C(=O)Nc1cc(Cl)cc(Cl)c1` was tested, and the Potency was inconclusive: 100 µM [inhibitor, single point].
For `CC1CN(C(=O)N2CCC(C(=O)NCCCc3ccccc3)CC2)c2cc(Cl)ccc2O1` (stereo unspecified), the Potency was “inactive”.
In the case of `CCCn1cc(S(=O)(=O)c2ccc(C)cc2)c(=O)c2cc(F)c(N3CCCC3)cc21`, the Potency is reported as inconclusive: 89.1 µM [inhibitor, partial curve, poor fit].
For `CC(=O)Nc1cccc(NC(=O)c2cc3c(=O)n4cccc(C)c4nc3n2C)c1`, the Potency was “inactive”.
In the case of `O=C(NCCc1ccc(F)cc1)c1ccc(Cl)c(S(=O)(=O)N2CCOCC2)c1`, the Potency is reported as inconclusive: 50.1 µM [inhibitor, partial curve, poor fit].
`Nn1c(SCC(=O)Nc2cc(C(F)(F)F)ccc2Cl)nncc1=O` was tested, and the Potency was active: 79.4 µM.
For `COc1cc(/C=N/n2c(=S)[nH]nc(C)c2=O)cc([N+](=O)[O-])c1O`, the Potency was “inactive”.
With `CC(C)(C)C(=O)Nc1ccc(C(=O)OC2CCCCC2)cc1` the Potency was inconclusive: 70.8 µM [inhibitor, partial curve, poor fit].
For `Cc1ccc(C(=O)/C=C/c2ccccc2)o1`, the Potency was inconclusive: 3.98 µM [inhibitor, full curve, poor fit].
`CCc1nnc2sc(-c3ccc(NC(=O)c4ccco4)cc3)nn12` was tested, and the Potency was inconclusive: 112 µM [inhibitor, single point].
`Cc1ccc(S(=O)(=O)Nc2cccc(-c3ccc(N4CCC(C)CC4)nn3)c2)s1` was tested, and the Potency was “inactive”.
`O=C(COC(=O)/C=C/c1cccc(Cl)c1)NCCc1ccccc1` was tested, and the Potency was “inactive”.
In the case of `O=c1[nH]c2ccc(S(=O)(=O)N3CCCCC3)cc2o1`, the Potency is reported as inconclusive: 17.8 µM [inhibitor, full curve].
In the case of `CC1CCN(S(=O)(=O)c2ccc3c(c2)CCN3C(=O)Nc2ccccc2Br)CC1`, the Potency is reported as “inactive”.
With `Cc1c(OC(C)C(=O)NCCN2CCOCC2)ccc2c(-c3ccccc3)cc(=O)oc12` (stereo unspecified) the Potency was inconclusive: 79.4 µM [inhibitor, single point].
With `C[N+](C)(C)CCC(=O)N1C/C(=C/c2ccccc2)C(=O)/C(=C\c2ccccc2)C1` the Potency was inconclusive: 20 µM [inhibitor, partial curve, poor fit].
For `Cc1cccc(Cn2c(SCc3ccc(C(=O)N4CCCCCC4)cc3)nc3ccncc32)c1`, the Potency was inconclusive: 79.4 µM [inhibitor, single point].
With `Nc1c(SCCC(=O)O)ccc2c1C(=O)c1ccccc1C2=O` the Potency was inconclusive: 10 µM [inhibitor, partial curve, poor fit].
For `O=C(Nc1ccc2nsnc2c1)N1CCCCCC1`, the Potency was inconclusive: 20 µM [inhibitor, partial curve, poor fit].
With `C=CCn1c[n+](CC(=O)c2ccc(Br)s2)c2ccccc21` the Potency was “inactive”.
With `COc1ccc(-c2nc(CS(=O)CC(=O)NC3CCCCC3C)c(C)o2)cc1OC` (stereo unspecified) the Potency was “inactive”.
For `Cn1c(SCC(=O)c2ccc(O)c(O)c2)nnc1-c1ccccc1`, the Potency was inconclusive: 70.8 µM [inhibitor, partial curve, poor fit].
With `COc1ccc(C2=NOC(Cn3nc(C(=O)NCc4ccc5c(c4)OCO5)cc3-c3ccccc3)C2)cc1` (stereo unspecified) the Potency was inconclusive: 2.24 µM [inhibitor, full curve, poor fit].
For `CCC1(c2ccc(F)cc2)NC(=O)N(CC(=O)Nc2cccc(S(=O)(=O)N3CCOCC3)c2)C1=O` (stereo unspecified), the Potency was “inactive”.
In the case of `CC(=O)C1CCC2C3CCC4CC(=O)CCC4(C)C3C=CC12C` (stereo unspecified), the Potency is reported as inconclusive: 28.2 µM [inhibitor, single point].
For `COc1ccc(-c2ccc(C3C4C=CCC(C)C4C(=O)N3Cc3ccccc3)c(F)c2)cc1OC` (stereo unspecified), the Potency was “inactive”.
`CCOc1ccc(NC(=O)CN2CCCC2c2cccs2)cc1S(=O)(=O)N1CCCCC1` (stereo unspecified) was tested, and the Potency was inconclusive: 89.1 µM [inhibitor, single point].
`COCCn1c(C)cc(C(=O)CSc2ncnc3sc4c(c23)CCC4)c1C` was tested, and the Potency was inconclusive: 79.4 µM [inhibitor, partial curve, poor fit].
`COc1ccc(Cl)cc1S(=O)(=O)NCCCn1ccnc1` was tested, and the Potency was inconclusive: 100 µM [inhibitor, partial curve, poor fit].
With `Cc1ccc(C(=O)OC(C)C(=O)c2cc(C)c(C)cc2C)o1` (stereo unspecified) the Potency was “inactive”.
With `C=CCn1c(SCC(=O)Nc2sc3c(c2C#N)CCC3)nnc1C1COc2ccccc2O1` (stereo unspecified) the Potency was inconclusive: 12.6 µM [inhibitor, partial curve, poor fit].
In the case of `CCN(CC)C(=O)c1ccc(COc2ccccc2Br)o1`, the Potency is reported as inconclusive: 3.16 µM [inhibitor, partial curve, poor fit].
In the case of `NS(=O)(=O)c1ccc(NC2=CC(c3ccc(F)cc3)N(c3ccc(S(N)(=O)=O)cc3)C2=O)cc1` (stereo unspecified), the Potency is reported as inconclusive: 70.8 µM [inhibitor, single point].
`Cc1oc(-c2ccc3c(c2)OCCO3)cc1C(=O)NCC(=O)O` was tested, and the Potency was inconclusive: 3.16 µM [inhibitor, partial curve, poor fit].
In the case of `Cc1nc(SCC(=O)NCc2ccc3c(c2)OCO3)nc(C)c1C`, the Potency is reported as “inactive”.
With `O=C(/C=C\Nc1ccc2c(c1)OCO2)c1ccc(Cl)s1` the Potency was “inactive”.
For `COc1cccc(C(=S)N2CCCC2)c1OC`, the Potency was inconclusive: 44.7 µM [inhibitor, partial curve, poor fit].
For `CCc1cc2cc(C)cc(C)c2[nH]c1=S`, the Potency was inconclusive: 25.1 µM [inhibitor, single point].
For `CSCCNC(=O)c1ccc(OC2CCN(S(=O)(=O)N(C)C)CC2)cc1`, the Potency was inconclusive: 79.4 µM [inhibitor, single point].
With `CCc1c(C#N)c(SCCC(=O)Nc2ccc(OC)cc2)nc2c1C(=O)CC(C)(C)C2` the Potency was inconclusive: 39.8 µM [inhibitor, single point].
`Cc1cc(C(=O)N/N=C/c2ccc(O)c([N+](=O)[O-])c2)c(C)n1-c1ccc(F)cc1` was tested, and the Potency was inconclusive: 17.8 µM [inhibitor, full curve, poor fit].
In the case of `O=C(CCc1nnc2ccc(NCc3ccco3)nn12)Nc1cc(F)ccc1F`, the Potency is reported as “inactive”.
`O=C(NCc1ccc(F)cc1)C1CCN(C(=O)c2ccc(-n3ccc4ccccc43)s2)CC1` was tested, and the Potency was inconclusive: 89.1 µM [inhibitor, single point].
In the case of `C=CCN=c1scc(-c2ccco2)n1/N=C/c1ccc(O)c(O)c1O`, the Potency is reported as active: 1.78 µM.
With `Nn1c(C2COc3ccccc3O2)n[nH]c1=S` (stereo unspecified) the Potency was inconclusive: 14.1 µM [inhibitor, full curve, poor fit].
`COc1cc([N+](=O)[O-])cc(/C=N/NC(=O)C(C)Nc2cccc3ccccc23)c1O` (stereo unspecified) was tested, and the Potency was “inactive”.
`O=C(/C=C/c1ccc(Br)cc1)c1ccc(NC(=O)c2ccco2)cc1` was tested, and the Potency was inconclusive: 39.8 µM [inhibitor, partial curve, poor fit] and inconclusive: 20 µM [inhibitor, partial curve, poor fit].
In the case of `O=C(Nc1cccc(C2OCCCO2)c1)c1cccs1`, the Potency is reported as “inactive”.
`COc1ccc(-c2sc3cc4c(cc3c2C#CC2(N)CCCCC2)OCO4)cc1` was tested, and the Potency was inconclusive: 39.8 µM [inhibitor, single point].
With `COC(C[C@H]1O[C@@H]1[C@H](O)COCc1ccccc1)OC` the Potency was inconclusive: 100 µM [inhibitor, partial curve, poor fit].
With `CCCc1cc(=O)oc2cc(C)cc(OC(C)C(=O)NCc3cccnc3)c12` (stereo unspecified) the Potency was inconclusive: 100 µM [inhibitor, single point].
With `Clc1ccc(OCc2nn3c(-c4ccco4)nnc3s2)c(Cl)c1` the Potency was “inactive”.
With `Cc1ccc(C(=O)Nc2nc(-c3cccnc3)cs2)o1` the Potency was inconclusive: 25.1 µM [inhibitor, single point].
In the case of `CN(Cc1ccco1)C(=O)c1ccc(CNS(=O)(=O)c2ccc3c(c2)C(C)(C)C(=O)N3C)cc1`, the Potency is reported as inconclusive: 56.2 µM [inhibitor, partial curve, poor fit].
For `Cc1ccc(OCC(=O)Nc2ccc(O)c(-c3nc4cc(C)c(C)cc4o3)c2)cc1`, the Potency was “inactive”.
`CCN(CC(=O)Nc1ccc(NC(C)=O)cc1)C(=O)c1cccc(-n2cccc2)c1` was tested, and the Potency was active: 56.2 µM.
`O=C(C1=C(O)C(=O)N(c2ncccn2)C1c1ccc(Cl)c(Cl)c1)c1ccco1` (stereo unspecified) was tested, and the Potency was inconclusive: 56.2 µM [inhibitor, partial curve, poor fit].
With `C1CSC2(N1)C1CC3CC2CC(C1)C31NCCS1` (stereo unspecified) the Potency was inconclusive: 35.5 µM [inhibitor, single point].
